In publication PMC4882601, “Binding of Human Fibrinogen to MRP Enhances Streptococcus suis Survival in Host Blood in a αXβ2 Integrin-dependent Manner” (Scientific Reports, 2016):
Results are given in words; binding and its absence hold for the method and conditions named. Binding calls can cover weak binding; strength is not graded here. Where a sequence is shown, tags or fusion partners need not be part of it.

Amino acid sequences for entries named in this document (tags omitted). A change or cut given only in a name is not applied to a line headed by its entry.
UniProt P02671: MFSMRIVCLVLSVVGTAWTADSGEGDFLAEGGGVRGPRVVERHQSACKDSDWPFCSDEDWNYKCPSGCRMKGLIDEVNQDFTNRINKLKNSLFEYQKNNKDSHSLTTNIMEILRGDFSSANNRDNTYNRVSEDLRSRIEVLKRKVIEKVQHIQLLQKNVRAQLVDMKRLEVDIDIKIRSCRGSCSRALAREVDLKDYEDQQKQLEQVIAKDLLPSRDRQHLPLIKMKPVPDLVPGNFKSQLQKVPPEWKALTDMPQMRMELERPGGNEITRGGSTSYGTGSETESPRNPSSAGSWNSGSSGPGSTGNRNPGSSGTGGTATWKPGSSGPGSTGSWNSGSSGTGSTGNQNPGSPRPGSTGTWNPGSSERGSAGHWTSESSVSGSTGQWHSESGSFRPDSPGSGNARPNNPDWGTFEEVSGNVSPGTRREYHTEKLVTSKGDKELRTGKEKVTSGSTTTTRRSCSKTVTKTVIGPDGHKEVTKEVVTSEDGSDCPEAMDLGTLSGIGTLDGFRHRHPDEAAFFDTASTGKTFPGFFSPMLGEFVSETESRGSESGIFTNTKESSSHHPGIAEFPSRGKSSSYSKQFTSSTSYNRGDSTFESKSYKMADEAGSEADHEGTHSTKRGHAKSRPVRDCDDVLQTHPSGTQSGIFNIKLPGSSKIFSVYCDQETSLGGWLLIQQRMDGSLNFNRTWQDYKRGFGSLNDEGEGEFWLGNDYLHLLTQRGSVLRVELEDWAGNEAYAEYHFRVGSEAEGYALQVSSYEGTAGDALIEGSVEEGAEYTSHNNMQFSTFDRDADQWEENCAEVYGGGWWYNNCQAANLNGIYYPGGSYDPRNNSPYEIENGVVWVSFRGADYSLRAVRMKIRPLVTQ

Molecular target: human fibrinogen Aα chain (human) (UniProt P02671)
Assay: far-Western, overlay or dot blot; purified hFg separated by reducing SDS-PAGE, transferred to PVDF, probed with biotinylated hisMRP proteins (20 μg/ml), detected with HRP-streptavidin; both purified

| Binder | binding |
| --- | --- |
| hisMRP-N (a.a. 48-721, the N-terminus of muramidase-released protein) (domain or fragment, biotin (in the far-Western and on the BLI biosensors), Muramidase-released protein (MRP) of Streptococcus suis serotype 2 strain 05ZYH33, gene SSU05_0753, residues 48-721; also called hisMRP-N_(48-721); source: cloned into pET-28a, expressed, purified by Ni-chelating chromatography) DETVASSEPTIASSVAPASTEAVAEEAEKTNAENTSAVATTSTEVEKAKAVLEQVTSESPLLAGLGQKELAKTEDATLAKAIEDAQTKLAAAKAILADSEATVEQVEAQVAAVKVANEALGNELQKYTVDGLLTAALDTVAPDTTASTLKVGDGEGTLLDSTTTATPSMAEPNGAAIAPHTLRTQDGIKATSEPNWYTFESYDLYSYNKNMASSTYKGAEVDAYIRYSLDNDSSTTAVLAELVSRTTGDVLEKYTIEPGESVTFSHPTKVNANNSNITVTYDTSLASANTPGALKFSANDDVYSTIIVPAYQINTTRYVTESGKVLATYGLQTIAGQVVTPSSVRVFTGYDYVATTTKAVQGPYPKGTVYLAGTVQKDTVQYKVIREIVENDQAVLKFYYLDPTYKGEVDWRGTDTTGFIELLTTSPTTYKVGTIYDYNINSKITAPFTIDPTKNVMVFKESEQNEQGSKYRVIAQWSGDETTKGIYGKIYIATQVWTTKLGTNEWGWFDYSDDQAGIKFNNKGFWPAGVQNTLRNATPATAVETTYIYKESSKYGDVIVEYYDTDGKQIVNSVVDTPKSALGTEYNTDVDRRPASLVAADGTVYFYKEVKSDSAKTTGTVVAGTTTVKYVYEKAGSVNVNFVDINGKVIKAPVSDEKDAKPGYNYDTDLDQKL | binds |
| hisMRP-N2 (a.a. 283-721 of muramidase-released protein, mainly consisting of β-sheets) (domain or fragment, UniProt P32653 283-721, biotin (in the far-Western and on the BLI biosensors)) TAVLAELVSRTTGDVLEKYTIEPGESVTFSHPTKVNANNSNITVTYDTSLASANTPGALKFSANDDVYSTIIVPAYQINTTRYVTESGKVLATYGLQTIAGQVVTPSSVRVFTGYDYVATTTKAVQGPYPKGTVYLAGTVQKDTVQYKVIREIVENDQAVLKFYYLDPTYKGEVDWRGTDTTGFIELLTTSPTTYKVGTIYDYNINSKITAPFTIDPTKNVMVFKESEQNEQGSKYRVIAQWSGDETTKGIYGKIYIATQVWTTKLGTNEWGWFDYSDDQAGIKFNNKGFWPAGVQNTLRNATPATAVETTYIYKESSKYGDVIVEYYDTDGKQIVNSVVDTPKSALGTEYNTDVDRRPASLVAADGTVYFYKEVKSDSAKTTGTVVAGTTTVKYVYEKAGSVNVNFVDINGKVIKAPVSDEKDAKPGYNYDTDLDQKL | binds |
